No constants are given. Whether binding was seen depends on the method and setting. In cells and extracts the contact can be indirect.
Molecular target: HA-NS5A (hepatitis C virus NS5A protein) (hepatitis C virus (strain not stated)) (UniProt Q9WMX2)
Assay: co-IP; Huh-7.5 cells cotransfected with pCAG-HA-NS5A and each FLAG-DGAT1 plasmid, harvested 48 h after transfection; lysate precipitated with anti-HA pAb on protein A Sepharose beads; HA-NS5A is the bait; blot with anti-DDDDK mAb

Sequences of proteins named here, by UniProt entry; tags and fusion partners are left off. Residues count along the entry.
FLAG-DGAT1 (aa 1–156) (O75907, residues 1-156): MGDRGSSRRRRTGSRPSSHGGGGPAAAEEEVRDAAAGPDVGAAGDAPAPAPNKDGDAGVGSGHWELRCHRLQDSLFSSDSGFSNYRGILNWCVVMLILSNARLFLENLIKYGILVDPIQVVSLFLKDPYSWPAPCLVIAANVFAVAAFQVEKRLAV
FLAG-DGAT1 (aa 400–488) (O75907, residues 400-488): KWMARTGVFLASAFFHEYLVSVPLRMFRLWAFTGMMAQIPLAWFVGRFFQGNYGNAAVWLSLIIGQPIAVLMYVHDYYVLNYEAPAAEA

Substance: FLAG-DGAT1 (aa 400–488) (from UniProt O75907 400-488) (domain or fragment)
- binding: no binding

Substance: FLAG-DGAT1 (aa 1–156) (from UniProt O75907 1-156) (domain or fragment)
- binding: no binding
